Measured values published in paper PMC3928314, “Identification and Characterization of Sebaceous Gland Atrophy-Sparing DGAT1 Inhibitors” (PLoS ONE, 2014).

Assay: Skin compound concentration after 14 days oral dosing
Assay type: in vivo, mouse
Settings: DIO mice
Method: Experiments were performed in male diet induced obese C57BL/6 mice (Taconic Farms, Germantown, NY) that were fed high-fat diet (D12492: 60% kcal from fat; Research Diets) in a 12 hr light/12 hr dark cycle. Animal protocols used in these studies were approved by the Merck Research Laboratories Institutional Animal Care and Use Committee (Rahway, NJ). Mice were acclimated to nonspecific stress for 7 days before the onset of the chronic dosing studies where they were dosed orally with vehicle (0.5% methylcellulose) or compounds at 30 mg/kg, or at doses indicated, for 14 days.
The skin tissue samples from mice were weighted and placed in 48-well plates (or tubes). […] An aliquot of 100 µL homogenized blank skin tissue samples were transferred to 96-well plates designated for standard curve and QCs. […] An aliquot of 100 µL dosed skin tissue homogenates were transferred to the 96-well plate and a 25 µL aliquot of acetonitrile:water 1∶1 was added into each well containing dosed tissue samples to make the volumes of all samples, stds, and QCs equal. Protein precipitation was used for sample extraction by the addition of 500 µL of acetonitrile crash solution, containing IS. Internal standard used was Alprazolam (Sigma Aldrich) at 100 µM in the crash solution. Samples were vortexed for 30 seconds and then centrifuged at 4000 rpm for 5 min. The supernatant was transferred to a separate plate. […]

O=C(Nc1ccc([C@H]2CC[C@H](C(=O)O)CC2)cc1F)c1nnc(Nc2ccc(F)c(F)c2)o1 [Cpd3]
Skin/IC50 (skin concentration vs in vitro potency): 12.27
